Among the data in PMC9258116 are binding values, retold here.

Protein sequences, listed by entry. Tags and fused reporters are not part of them.
UniProt Q63943: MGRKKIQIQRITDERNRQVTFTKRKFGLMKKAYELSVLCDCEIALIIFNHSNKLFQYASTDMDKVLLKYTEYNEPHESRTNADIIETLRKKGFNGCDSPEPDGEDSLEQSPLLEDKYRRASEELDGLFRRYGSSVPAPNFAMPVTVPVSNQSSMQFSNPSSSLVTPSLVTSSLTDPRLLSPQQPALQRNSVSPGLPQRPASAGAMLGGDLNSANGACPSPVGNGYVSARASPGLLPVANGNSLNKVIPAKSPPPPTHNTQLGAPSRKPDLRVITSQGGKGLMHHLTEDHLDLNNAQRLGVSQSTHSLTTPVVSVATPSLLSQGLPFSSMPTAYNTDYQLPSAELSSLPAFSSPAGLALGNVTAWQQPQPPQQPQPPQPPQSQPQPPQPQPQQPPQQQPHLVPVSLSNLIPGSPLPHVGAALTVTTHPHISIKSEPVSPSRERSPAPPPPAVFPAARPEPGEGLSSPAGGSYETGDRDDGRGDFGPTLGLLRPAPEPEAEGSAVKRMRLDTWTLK
UniProt Q64518: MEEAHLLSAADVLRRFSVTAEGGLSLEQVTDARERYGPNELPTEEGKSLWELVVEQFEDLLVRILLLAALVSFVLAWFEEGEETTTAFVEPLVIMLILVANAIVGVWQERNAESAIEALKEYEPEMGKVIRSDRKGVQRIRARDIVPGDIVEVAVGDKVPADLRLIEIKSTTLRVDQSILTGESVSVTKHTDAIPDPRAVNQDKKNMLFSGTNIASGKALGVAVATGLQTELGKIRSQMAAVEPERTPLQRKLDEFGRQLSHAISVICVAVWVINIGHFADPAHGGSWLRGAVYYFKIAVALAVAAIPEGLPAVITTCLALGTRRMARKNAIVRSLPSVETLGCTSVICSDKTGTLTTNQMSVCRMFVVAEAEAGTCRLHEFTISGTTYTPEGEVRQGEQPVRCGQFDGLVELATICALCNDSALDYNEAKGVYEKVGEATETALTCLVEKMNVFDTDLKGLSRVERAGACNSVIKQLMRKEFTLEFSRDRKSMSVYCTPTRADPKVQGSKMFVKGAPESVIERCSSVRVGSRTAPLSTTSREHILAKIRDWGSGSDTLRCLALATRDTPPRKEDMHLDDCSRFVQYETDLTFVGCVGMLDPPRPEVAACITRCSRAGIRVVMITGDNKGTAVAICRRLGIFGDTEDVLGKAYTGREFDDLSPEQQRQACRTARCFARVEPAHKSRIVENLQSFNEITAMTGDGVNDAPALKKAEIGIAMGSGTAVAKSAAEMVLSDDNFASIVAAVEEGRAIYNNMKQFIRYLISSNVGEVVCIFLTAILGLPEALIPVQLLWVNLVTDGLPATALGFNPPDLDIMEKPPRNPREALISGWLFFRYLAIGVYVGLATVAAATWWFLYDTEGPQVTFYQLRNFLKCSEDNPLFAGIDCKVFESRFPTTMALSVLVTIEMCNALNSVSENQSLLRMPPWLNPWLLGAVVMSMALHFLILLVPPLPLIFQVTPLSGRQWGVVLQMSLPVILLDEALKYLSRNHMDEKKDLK

These are yes or no findings as the source states them, for the method shown. Binding seen in cells or lysates may run through a third protein. Here binding means that the protein was enriched with, or labelled near, the bait; the list need not be complete.

The assay has as its target myocyte enhancer factor 2D (Mef2d) (mouse (endogenous in RAW264.7)) (UniProt Q63943). As to the kind of experiment: affinity purification with mass spectrometry; co-IP from RAW264.7 protein extract (high-glucose culture), pre-cleared with Protein A/G Plus Agarose; 2 ug rabbit anti-mouse Mef2d antibody to 500 ug extract overnight at 4 C, agarose 2 h at 4 C; SDS-PAGE, in-gel digestion, nano-UPLC Q Exactive HFX, MaxQuant.

Take “ATPase sarcoplasmic/endoplasmic reticulum Ca2+ transporting 3 (Atp2a3) (from UniProt Q64518 1-999)”: the binding entry is “binds”.
